Measurements published in publication PMC11262655.
Results are given in words; binding and its absence hold for the method and conditions named. In cells and extracts the contact can be indirect. Some entries that bind do so weakly or less than the wild type.

By UniProt entry, the sequences of proteins in these tests, tags left out.
UniProt Q2EJA0: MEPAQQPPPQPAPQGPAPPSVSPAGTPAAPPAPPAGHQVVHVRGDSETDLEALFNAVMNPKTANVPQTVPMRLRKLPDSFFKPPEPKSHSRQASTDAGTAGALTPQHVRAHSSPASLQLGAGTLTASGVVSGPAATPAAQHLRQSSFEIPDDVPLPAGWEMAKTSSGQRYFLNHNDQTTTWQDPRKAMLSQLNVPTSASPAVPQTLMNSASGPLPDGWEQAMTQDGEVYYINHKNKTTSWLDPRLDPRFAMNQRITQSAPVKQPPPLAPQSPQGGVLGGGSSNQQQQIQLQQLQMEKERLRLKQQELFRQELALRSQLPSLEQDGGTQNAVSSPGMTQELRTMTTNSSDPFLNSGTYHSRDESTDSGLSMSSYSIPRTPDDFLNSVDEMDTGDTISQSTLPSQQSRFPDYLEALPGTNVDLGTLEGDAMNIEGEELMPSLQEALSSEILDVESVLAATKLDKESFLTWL

Molecular target: T1, 14-3-3η protein (rat (endogenous in H9C2)) (UniProt P68511)
T1 sequence: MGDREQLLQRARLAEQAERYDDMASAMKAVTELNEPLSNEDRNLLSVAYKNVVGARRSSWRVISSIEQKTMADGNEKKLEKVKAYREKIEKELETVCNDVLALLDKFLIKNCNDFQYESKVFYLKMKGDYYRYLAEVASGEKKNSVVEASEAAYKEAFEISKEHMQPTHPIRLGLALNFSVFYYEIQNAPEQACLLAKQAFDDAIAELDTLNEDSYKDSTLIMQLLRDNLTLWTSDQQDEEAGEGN
Experiment: co-IP; H9C2 cell lysate incubated with 5 ug Ywhah antibodies overnight at 4°C, Protein A/G PLUS-Agarose beads 4 hours at 4°C, washed three times with lysis buffer, Western blot

In the case of “Yes-associated protein (from UniProt Q2EJA0 1-469)”, the binding is reported as “binds”.
